Where “and” joins values, the source holds several entries; their conditions need not be identical. Identical values can stand only once. Screen size: about 300,000 compounds; about 3,700 (1.2%) were called active. Inconclusive means that the source gave no clear call. Such entries were picked first, then a sample of the others. Calls follow the shape of the full dose curve; tested in HEK293 cells. A potency beside an inconclusive call is a rough fit, not a confirmed value.
Assay: qHTS for Inhibitors of binding or entry into cells for Lassa Virus; also: nearly all actives have a fitted effect of over 50% in size
Conditions: Lassa virus pseudotype entry inhibition, cell reporter; series mostly up to 37.9 µM
Potency is read from the fitted curve at half-maximal effect.

Compound	Potency
O=C(Nc1c2c(nn1-c1ccc(F)cc1)CS(=O)C2)c1ccco1 (stereo unspecified)	inconclusive: 22.4 µM [activator, single point]
CC(C)n1nc(C(=O)Oc2cccc(Cl)c2Cl)c2ccccc2c1=O	inconclusive: 15.8 µM [inhibitor, partial curve, poor fit]
Cc1ccc(C(=O)Nc2nc3ccccc3[nH]2)cc1	inconclusive: 1.78 µM [inhibitor, full curve, poor fit]
CCC(=O)N1CCN(c2nc(C)nc3sc(C)c(C)c23)CC1	inactive
O=C(COC(=O)c1ccccc1Oc1ccccc1)NCc1ccco1	inactive
CCOc1ccc(N(CC(=O)NC2CCCCC2)C(=O)CCC(=O)Nc2cc(C)ccn2)cc1	inconclusive: 1.26 µM [inhibitor, single point]
O=C(N/N=C/c1ccc2c(c1)OCO2)c1cc(-c2ccc(F)cc2)nc2ccccc12	active: 0.58 µM
O=C(Nc1ccc2oc(-c3cccc4c(Br)cccc34)nc2c1)c1ccc(F)cc1	inactive
COc1cccc(N2CCN(C(=O)c3ccc4ccccc4c3)CC2)c1	inactive
O=C(COC(=O)Cn1cnc2ccccc21)Nc1ccc(F)c(F)c1	inactive
CCC(=O)Nc1ccc(Nc2nc(C)c([N+](=O)[O-])c(Nc3ccc(NC(=O)CC)cc3)n2)cc1	inconclusive: 11.2 µM [inhibitor, partial curve]
COc1ccccc1NC(=O)COC(=O)/C=C/c1ccc2c(c1)OCO2	inconclusive: 35.5 µM [activator, partial curve, poor fit]
CCC(=O)Nc1ccc(NC(=O)CSc2nc3cc4c(cc3cc2C)CCC4)cc1	inconclusive: 25.9 µM [inhibitor, single point]
COc1ccc(O[C@H]2C=C[C@@H](c3ccccc3)O[C@H]2COC(=O)CCC(C)=NOCC[C@@H]2C=C[C@H](OC(C)=O)[C@@H](COC(C)=O)O2)cc1	inconclusive: 1.19 µM [activator, single point]
CCCCN(C)CCNC(=O)c1ccc2c(=O)n(CCc3ccccc3)c(=O)[nH]c2c1	inconclusive: 1.78 µM [activator, partial curve, poor fit]
Cc1ccc(-c2csc3nc[nH]c(=S)c23)cc1	inactive
Cc1ccc(S(=O)(=O)NC2=C(N3CCN(c4ccccc4F)CC3)C(=O)c3ccccc3C2=O)cc1	inactive and inconclusive: 35.5 µM [inhibitor, single point]
COc1cccc(Oc2ccc(C(F)(F)F)cc2N)c1	inconclusive: 22.4 µM [inhibitor, partial curve, poor fit]
Cn1c(-c2ccccc2)n[nH]c1=S	inconclusive: 0.398 µM [inhibitor, partial curve, poor fit]
CCOc1cc(C(=O)Nc2cc(C)on2)cc(OCC)c1OCC	inconclusive: 29.1 µM [inhibitor, single point]
CNC(=S)N1N=C(c2ccc(C)cc2)CC1c1ccc(Br)cc1 (stereo unspecified)	inconclusive: 18.3 µM [inhibitor, partial curve, poor fit]
CC1CCCCC1NC(=O)CCN1C(=O)C2C3C=CC(C3)C2C1=O (stereo unspecified)	inconclusive: 35.5 µM [activator, single point]

Compound	Potency
COc1nc(NCCc2ccc(OC)c(OC)c2)nc(Nc2ccccc2)n1	inconclusive: 35.5 µM [inhibitor, partial curve, poor fit]
O=C(NCc1cccnc1)c1ccc(Cl)c(S(=O)(=O)Nc2ccccc2C(=O)NCc2cccnc2)c1	inconclusive: 0.316 µM [inhibitor, partial curve, poor fit]
Cc1cc(OC(C)C(=O)Nc2ccccc2C(=O)N2CCCC2)ccc1Cl (stereo unspecified)	inactive
COc1ccc(C2=NC3(CCCCC3)N(CC(=O)Nc3ccc(C(C)C)cc3)C2=O)cc1	inconclusive: 35.5 µM [inhibitor, single point]
COC(=O)Nc1ccc(S(=O)(=O)Nc2ccccc2F)cc1	inconclusive: 7.08 µM [inhibitor, partial curve, poor fit]
CCn1c(=O)n(-c2ccc(C)c(F)c2)c(=O)c2sc3ccccc3c21	inactive
O=C(Nc1nnc(C2COc3ccccc3O2)o1)c1ccc(F)cc1 (stereo unspecified)	inconclusive: 35.5 µM [inhibitor, single point]
O=C(Nc1cccnc1)Nc1ccccn1	inactive
CC(NC(=O)c1ccc(Cn2cc([N+](=O)[O-])cn2)o1)c1ccccc1 (stereo unspecified)	inconclusive: 11.2 µM [inhibitor, partial curve, poor fit]
Cc1cc(C)c(/C([O-])=C(/C(=S)Nc2ccc(SC(F)F)cc2)[n+]2ccccc2)cc1C	inactive
O=C(NCCCc1ccccc1)C(=O)NCC1OCCN1S(=O)(=O)c1ccccc1 (stereo unspecified)	inconclusive: 6.31 µM [inhibitor, single point]
COc1cccc(CNC(=O)COC(=O)c2c(C)nn(-c3ccccc3)c2Cl)c1	inconclusive: 2.51 µM [inhibitor, full curve, poor fit]
COc1ccc(C(=O)/C=C2\Sc3ccccc3N2C)cc1	inconclusive: 10 µM [inhibitor, partial curve]
Cc1ccc(-c2nc3nc(C)cc(N4CCN(c5cc(Cl)ccc5C)CC4)n3n2)cc1	inactive
Cc1ccc2occ(CN3CC4CC(C3)c3cccc(=O)n3C4)c(=O)c2c1 (stereo unspecified)	inconclusive: 2.59 µM [inhibitor, partial curve, poor fit]
Cc1ccc2sc(NC(=O)CSc3nc(C)cc(C)c3C#N)nc2c1	inconclusive: 18.3 µM [inhibitor, single point]
Cc1ccc(C(C(=O)NCCc2ccccc2)N(C(=O)c2csnn2)C2CC2)cc1 (stereo unspecified)	inconclusive: 0.1 µM [inhibitor, partial curve, poor fit]
c1ccc(CNc2nc(N3CCN(Cc4ccccc4)CC3)nc3ccccc23)cc1	inconclusive: 35.5 µM [inhibitor, single point]
O=C(CN1C(=O)NC2(CCCC2)C1=O)Nc1nc2ccccc2[nH]1	inactive
Cc1occc1C(=O)Nc1sc2c(c1C(N)=O)CCC(C(C)(C)C)C2 (stereo unspecified)	inactive
COc1cccc(CN(C)C(=O)CSCC(=O)Nc2cc(C)on2)c1OC	inactive
Cc1noc(C)c1C(=O)Nc1cc(S(=O)(=O)N2CCCCC2)ccc1N(C)C	inactive

Compound	Potency
O=c1oc2ccccc2c2oc3cc(O)c(O)cc3c12	inconclusive: 0.651 µM [activator, full curve, poor fit]
COc1cccc2c1OCC/C2=N\NC(=O)COc1ccc(C)cc1	inconclusive: 0.731 µM [activator, full curve, poor fit]
O=C(/C=C/c1ccc(Cl)cc1Cl)Nc1cccc(S(=O)(=O)NC2=NCCC2)c1	active: 14.6 µM
CC(OC(=O)c1ccc(Cl)nc1)C(=O)NCc1ccc2c(c1)OCO2 (stereo unspecified)	inconclusive: 11.2 µM [activator, single point]
CCCN(CCC)CCCNC(=O)Cn1cnc2sc(C)c(S(=O)(=O)N3CCCCC3)c2c1=O	inconclusive: 6.31 µM [inhibitor, single point]
O=C(COC(=O)c1ccccc1C(=O)c1ccccc1)Nc1ccc(SC(F)F)cc1	active: 16.4 µM
OCCC1CN(Cc2ccc3ncccc3c2)CCN1Cc1ccccc1 (stereo unspecified)	inconclusive: 1.12 µM [activator, full curve, poor fit]
O=C(Nc1cccc2nsnc12)c1ccc2c(c1)OCO2	inactive
Cc1ccc(NC(=O)c2ccc3c(c2)OCCO3)cc1C	inconclusive: 5.62 µM [inhibitor, full curve, poor fit]
COc1ccc(-c2nn3c(-c4ccccn4)nnc3s2)cc1OC	inconclusive: 13 µM [inhibitor, partial curve, poor fit]
Cc1cc2nc(-c3ccc(SCC(=O)N4CCOCC4)nc3)[nH]c2cc1C	inconclusive: 29.1 µM [inhibitor, single point]
O=C(Nc1ccc(Cl)c(C(F)(F)F)c1)NC1CC2CCCC(C1)N2Cc1ccccc1 (stereo unspecified)	inconclusive: 3.16 µM [inhibitor, single point]
N=c1c2c(-c3ccccc3)c(-c3ccccc3)n(Cc3ccco3)c2ncn1CCCO	inconclusive: 20 µM [inhibitor, partial curve, poor fit]
CC1=C(C(=O)OCc2ccccc2)C(c2cccnc2)n2ncnc2N1 (stereo unspecified)	inconclusive: 35.5 µM [activator, single point]
Cc1c2c(n3c(nc4ccccc43)c1C#N)N(CCCN(C)C)CC2	inactive
COc1ccc(CN2CCn3ncc(C(=O)Nc4cc(C)cc(C)c4)c3C2=O)cc1	inconclusive: 35.5 µM [inhibitor, single point]
COC(=O)c1ccc2c(=O)n(Cc3ccc(C(=O)NCCCN4CCC(C)CC4)cc3)c(=S)[nH]c2c1	inconclusive: 28.2 µM [activator, partial curve, poor fit]
Cc1cccc(COCC(Cc2ccccc2)N2CCN(C(=O)c3ccc(C(F)(F)F)cc3)CCC2=O)c1 (stereo unspecified)	inconclusive: 10.3 µM [inhibitor, partial curve]
Cc1ccc(C(=O)Cc2nnc(C)s2)cc1	inconclusive: 9.2 µM [activator, partial curve, poor fit]
CCc1ccc(-n2c(=O)c3c4c(sc3n(CC(=O)NCCCOC)c2=O)CCCC4)cc1	inactive
CC1CCN(c2ncnc3c2cnn3-c2ccc(F)cc2)CC1	inactive
CCN(CC)C(=O)Oc1cc2c(-c3cc4cccc(OC)c4o3)cc(=O)oc2cc1C	inconclusive: 2.82 µM [inhibitor, full curve]
